Results are given in words; binding and its absence hold for the method and conditions named. In cells and extracts the contact can be indirect. Here binding means that the protein was enriched with, or labelled near, the bait; the list need not be complete.
What follows are substances tested against His-tagged D2 reaction center subunit of PSII (Synechocystis sp. PCC 6803) (UniProt P09192) (assay: affinity purification with mass spectrometry; His-tagged D2 complexes from thylakoid membranes of strain His-D2/ΔCP47 solubilised with 1.5% DM, Protino Ni-NTA agarose at 10 °C, then 10–30% sucrose gradient; the RCII/PSI fraction analysed by SDS-PAGE, immunoblotting and mass spectrometry).

The chains behind the UniProt entries cited, without tags or fusion partners. Residues count along the entry.
UniProt P09192, residues 2-330: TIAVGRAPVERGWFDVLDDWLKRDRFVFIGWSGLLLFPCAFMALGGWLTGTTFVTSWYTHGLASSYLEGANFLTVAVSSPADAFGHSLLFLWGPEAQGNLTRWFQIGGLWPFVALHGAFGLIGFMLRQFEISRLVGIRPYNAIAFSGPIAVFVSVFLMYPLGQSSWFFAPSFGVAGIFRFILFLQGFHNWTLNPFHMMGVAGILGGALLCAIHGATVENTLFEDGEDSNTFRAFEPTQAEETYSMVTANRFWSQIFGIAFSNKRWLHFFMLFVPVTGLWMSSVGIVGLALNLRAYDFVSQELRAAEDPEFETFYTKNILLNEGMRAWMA
UniProt P29255: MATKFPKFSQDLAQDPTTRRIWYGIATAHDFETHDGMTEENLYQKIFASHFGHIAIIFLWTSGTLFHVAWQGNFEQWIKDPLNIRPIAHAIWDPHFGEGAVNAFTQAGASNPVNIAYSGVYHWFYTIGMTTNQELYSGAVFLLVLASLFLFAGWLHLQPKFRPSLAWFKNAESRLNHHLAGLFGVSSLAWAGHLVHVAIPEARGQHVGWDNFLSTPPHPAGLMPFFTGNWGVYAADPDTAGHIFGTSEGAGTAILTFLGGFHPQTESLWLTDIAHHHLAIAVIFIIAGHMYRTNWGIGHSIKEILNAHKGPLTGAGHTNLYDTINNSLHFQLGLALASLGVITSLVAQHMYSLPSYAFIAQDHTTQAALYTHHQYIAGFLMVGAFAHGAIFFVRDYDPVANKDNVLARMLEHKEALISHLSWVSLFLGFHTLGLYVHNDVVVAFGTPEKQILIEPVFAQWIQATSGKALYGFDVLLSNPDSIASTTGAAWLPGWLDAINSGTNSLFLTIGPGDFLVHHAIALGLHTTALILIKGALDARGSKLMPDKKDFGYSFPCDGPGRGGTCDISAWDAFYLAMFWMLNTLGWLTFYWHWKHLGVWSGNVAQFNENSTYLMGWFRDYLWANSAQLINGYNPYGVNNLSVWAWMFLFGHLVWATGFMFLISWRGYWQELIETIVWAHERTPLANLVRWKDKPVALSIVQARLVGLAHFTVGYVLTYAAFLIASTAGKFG
UniProt P29254: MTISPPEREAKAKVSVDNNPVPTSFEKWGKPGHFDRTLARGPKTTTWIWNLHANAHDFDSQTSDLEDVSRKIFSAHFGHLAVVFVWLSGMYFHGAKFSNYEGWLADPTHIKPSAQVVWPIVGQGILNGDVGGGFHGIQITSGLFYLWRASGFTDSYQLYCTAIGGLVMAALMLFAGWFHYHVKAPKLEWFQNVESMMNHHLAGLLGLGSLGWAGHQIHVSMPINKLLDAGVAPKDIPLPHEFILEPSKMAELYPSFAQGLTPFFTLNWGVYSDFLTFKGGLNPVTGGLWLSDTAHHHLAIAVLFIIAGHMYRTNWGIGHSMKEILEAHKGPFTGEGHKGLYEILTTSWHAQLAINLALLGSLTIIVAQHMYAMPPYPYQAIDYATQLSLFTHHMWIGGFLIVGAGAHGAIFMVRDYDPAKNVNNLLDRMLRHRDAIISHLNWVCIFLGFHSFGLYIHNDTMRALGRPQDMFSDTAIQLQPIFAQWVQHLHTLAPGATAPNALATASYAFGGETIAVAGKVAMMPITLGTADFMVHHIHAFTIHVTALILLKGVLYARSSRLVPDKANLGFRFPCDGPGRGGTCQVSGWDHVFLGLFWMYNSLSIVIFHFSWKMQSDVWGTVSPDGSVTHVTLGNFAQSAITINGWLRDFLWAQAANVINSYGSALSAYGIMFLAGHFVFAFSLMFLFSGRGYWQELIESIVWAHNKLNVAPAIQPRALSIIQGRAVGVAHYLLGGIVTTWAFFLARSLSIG
UniProt P32422: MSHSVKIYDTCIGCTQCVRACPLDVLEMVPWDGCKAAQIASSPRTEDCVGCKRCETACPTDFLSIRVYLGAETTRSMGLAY

binding, binds:
PsaB RC subunit of PSI (from UniProt P29255 1-731), PsaA subunit of PSI (from UniProt P29254 1-751), PsaC subunit of PSI (from UniProt P32422 1-81)

From article PMC10403576
